For 63 molecules, AC50 results are on record in PubChem BioAssay AID493014 (National Center for Advancing Translational Sciences (NCATS), 2011).

The other results are listed elsewhere or left out. The main result of the screen is listed elsewhere. These columns were measured beside it and carry no call. Compounds called inactive in the main read-out are mostly missing here. Potencies come from curve fits of mixed quality, noted in brackets.

This assay can be described thus: qHTS Assay to Find Inhibitors of Chronic Active B-Cell Receptor Signaling. The conditions noted are these: ABC-DLBCL IkBa-CBG/CBR reporter, luminescence ratio (green luciferase fused to IkBa over red control in TMD8 lymphoma cells), 4 h. The method in brief:
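Concentration-response series (up to 46 uM) were applied to TMD8 dual-reporter cells for 4 h at 37C with doxycycline. Green/red ratio, after filter-overlap correction, defined %Activity; red signal alone was normalised to basal cells and zero luminescence.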

Setting [1] is: measured here: CBR red luminescence, cell number.
Where [2] appears, read: measured here: IkBa-CBG green luminescence.

What is called AC50 is the midpoint of the concentration-response curve, whichever way the signal moves. In the case of `CCOC(=O)CSc1nc2ccccc2c(=O)n1CC(C)C`, the AC50 under setting [1] was 0.794 µM [falling, full curve, poor fit].
As to `COc1ccc(OC)c(NS(=O)(=O)c2ccc(NC(=O)c3ccc(NS(C)(=O)=O)cc3)cc2)c1`, the AC50 under setting [1] is 0.116 µM [falling, full curve, poor fit].
As to `CN(C)S(=O)(=O)c1cccc(NC(=O)c2ccc3c(c2)OCCO3)c1`, the AC50 under setting [1] is 2.06 µM [falling, full curve, poor fit].
Consider `NC(=O)CN1C(=O)NC2(CCOc3ccccc32)C1=O` (configuration not stated), for which the AC50 under setting [1] is 35.5 µM [rising, single point].
On the same count and under the same terms, for `COc1ccc(/C=C/CN2CCC(CO)(Cc3ccccc3Cl)CC2)cc1` the value was 20 µM [falling, single point]; for `CCn1c(CNc2ccc(Cl)cc2)nnc1SCC(=O)OC1CCCCC1`, 10.3 µM [falling, partial curve, poor fit].
Still for that read-out and setting: the result for `COc1ccc2c(c1)c(C(O)CN1CCC(Cc3ccccc3)CC1)c(C)n2C` (configuration not stated) reads 5.01 µM [falling, full curve].
Regarding `Cc1cc(NC(=O)c2cc(-c3ccc(O)cc3)on2)no1`, the AC50 under setting [1] was 10 µM [falling, partial curve, poor fit].
On to `O=C(c1ccsc1)N1CCCC(N2CCN(c3ccccc3F)CC2)C1` (configuration not stated), for which the AC50 under setting [1] is 17.8 µM [falling, partial curve, poor fit].
As to `CCOc1ccc(Nc2nc3c(c(=O)[nH]2)CCCC3)cc1`, the AC50 under setting [1] was 25.9 µM [rising, single point].
`COc1ccc(/C=C/c2nc(-c3ccccc3)cc(=O)[nH]2)cc1`: the AC50 under setting [1] was 35.5 µM [rising, single point].
As to `Cc1cc2oc(=O)cc(CN3CCCCC3)c2cc1C`, the AC50 under setting [1] was 6.31 µM [rising, single point].
Consider `O=C(NCCCN1CCOCC1)c1ccc2c(c1)N(Cc1c(F)cccc1Cl)C(=O)c1ccccc1S2`, for which, under setting [1], the AC50 was 15.8 µM [falling, single point].
Turning to `CC(C)COc1ccc(/C(=N/O)c2ccccc2)cc1`, the AC50 was 13 µM [rising, partial curve] under setting [1] and 23.1 µM [falling, single point] under setting [2].
Turning to `CCOC(=O)c1cnc(SCC(=O)N2CCc3ccccc32)nc1N`, the AC50 under setting [1] is 29.1 µM [rising, single point].
Same read-out and setting: for `COc1ccc(C(=O)NCCNc2nc3ccc(C)cc3cc2C#N)cc1` the value was 3.98 µM [falling, single point].
In the case of `COc1cccc(C(=O)Nc2cc(NC(=O)c3cccs3)ccc2C)c1OC`, the AC50 is, setting by setting: under setting [1], 1.58 µM [rising, full curve, poor fit]; under setting [2], 6.31 µM [falling, partial curve, poor fit].
As for `Cc1ccc(-n2ncc3c(Nc4ccc(Oc5ccccc5)cc4)ncnc32)c(C)c1`, the AC50 under setting [1] was 10 µM [rising, partial curve, poor fit].
As to `Oc1ccccc1-c1nc2cnccn2c1Nc1ccc2c(c1)OCCO2`, the AC50 under setting [1] is 6.51 µM [rising, single point].
On to `[O-]/C(=C(\C(=S)Nc1cccc2ccccc12)[n+]1ccccc1)c1ccc2c(c1)OCCO2`, for which the AC50 under setting [1] was 32.6 µM [falling, single point].
Still for that read-out and setting: the result for `Cc1cnc(CN2CCCC(C(=O)c3ccc4c5c(cccc35)CC4)C2)[nH]1` (configuration not stated) reads 22.4 µM [falling, single point].
In the case of `COc1ccc(N2CCC(CNS(=O)(=O)c3cccc(C(F)(F)F)c3)C2)cc1` (configuration not stated), under setting [1], the AC50 was 1.16 µM [falling, full curve].
For `OCC#CCSc1nnc(-c2ccccc2Br)o1`, the AC50 under setting [1] was 3.66 µM [falling, partial curve, poor fit].
`COc1cc(/C=N/N=C(/N)c2nonc2N)cc(Br)c1OCc1cccc(C)c1`: the AC50 under setting [1] was 8.2 µM [rising, partial curve, poor fit].
On to `COc1ccc(Cl)cc1NC(=O)CSc1nc(=O)n(Cc2ccco2)c2c1CCC2`, for which the half-maximal activity concentration (AC50) under setting [1] was 35.5 µM [falling, single point].
With `Cc1ccc(N2C(=O)CS/C2=C(\C(Cl)=C(Cl)Cl)[N+](=O)[O-])cc1`, the AC50 under setting [1] is 0.206 µM [falling, full curve, poor fit].
Regarding `COc1cccc(-c2nn(C)c3sc(C(=O)N4CCOCC4)cc23)c1`, the AC50 under setting [1] was 22.4 µM [falling, single point].
Turning to `Cc1ccc(C(=O)Nc2ccc(N3CCCC3)cc2)cc1`, under setting [1], the AC50 was 0.316 µM [falling, full curve].
For the molecule `O=C(O)c1ccc(-c2ccc(OS(=O)(=O)c3ccccc3F)cc2)cc1`, the AC50 under setting [1] is 8.91 µM [falling, partial curve, poor fit].
For the molecule `CC(C)(C)c1ccc(C(=O)Nc2ccc(Cl)cc2)cc1`, the AC50 under setting [1] was 1.46 µM [rising, full curve].
For `O=C(O)CSc1ncnc2sc3c(c12)CCC3`, the AC50 under setting [1] is 11.2 µM [falling, partial curve, poor fit].
With `CCCNC(=O)NS(=O)(=O)c1cnccc1Sc1ccc(Cl)cc1`, the AC50 under setting [1] was 7.94 µM [rising, partial curve].
For `Cc1cc(NC(=O)CCSc2ccccc2)ccc1Br`, the AC50 under setting [1] is 1.64 µM [rising, partial curve, poor fit].
In the case of `COc1ccc(C(=O)Nn2c(SCC(=O)NCC3CCCO3)nc3ccccc3c2=O)cc1` (configuration not stated), under setting [1], the AC50 was 2.59 µM [falling, full curve].
Consider `COc1ccc(OC)c(NC(=O)C(=O)c2cn(CC(=O)N3CCCC3)c3ccccc23)c1`, for which the AC50 under setting [1] is 0.708 µM [falling, full curve].
For `Cc1cccc(CCNC(=O)c2oc3c(C)c(C)ccc3c2C)n1`, under setting [1], the AC50 was 10 µM [falling, partial curve, poor fit].
Consider `CCN(CC)C(=O)c1cc2cc([N+](=O)[O-])ccc2s1`, for which the AC50 under setting [1] was 35.5 µM [rising, partial curve, poor fit].
The same measure, in the same setting: for `N#CC1=C(N)NC(SCC(=O)c2ccc(Br)cc2)=C(C#N)C12CCCCC2` the value was 16.4 µM [falling, single point]; for `COCCn1nnnc1C(c1ccccn1)N1CCN(c2cc(Cl)ccc2C)CC1` (configuration not stated), 0.58 µM [falling, partial curve, poor fit].
On to `CCn1c(=O)c(C(=O)Nc2ncccc2O)c(O)c2ccccc21`, for which the AC50 under setting [1] was 15.8 µM [falling, single point].
On to `Cc1cc(SCNC(=O)c2ccccc2)nc(C(C)C)n1`, for which the AC50 under setting [1] is 35.5 µM [rising, single point].
For `Cc1c(C(=O)NCc2ccccn2)sc2nc(-c3ccccc3)cn12`, under setting [1], the AC50 is 1.84 µM [rising, partial curve, poor fit].
For `COc1ccccc1Nc1nc(NCC2CCCO2)c2ccccc2n1` (configuration not stated), under setting [1], the half-maximal activity concentration (AC50) is 35.5 µM [falling, single point].
As for `COC(=O)C1=C(C)NC(C)=C(C(=O)OC)C1C(=O)OCC(=O)c1ccc(Br)cc1`, the AC50 by setting is: under setting [1], 3.26 µM [rising, full curve, poor fit]; under setting [2], 7.31 µM [falling, partial curve, poor fit].
Turning to `CC(=O)Nc1cccc(NS(=O)(=O)c2c(C)noc2C)c1`, the AC50 under setting [1] is 7.31 µM [rising, single point].
As for `COc1cccc(NC(=O)CSc2nc(=O)n(Cc3cccnc3)c3c2CCC3)c1`, the AC50 under setting [1] is 15.8 µM [falling, partial curve, poor fit].
In the case of `O=C(CCCn1cnc([N+](=O)[O-])n1)Nc1ccc(F)c(Cl)c1`, the AC50 under setting [1] was 6.31 µM [falling, single point].
With `O=C(O)[C@H](Cc1ccccc1)NC(=O)N1CCCCCC1`, the AC50 under setting [1] was 0.316 µM [rising, partial curve, poor fit].
With `COc1ccc(-n2nc(C(=O)NCC(=O)Nc3cccc(NC(C)=O)c3)c3ccccc3c2=O)cc1`, under setting [1], the AC50 is 1.26 µM [rising, partial curve, poor fit].
As for `Cc1ccc(S(=O)(=O)CC(=O)Nc2ncc([N+](=O)[O-])s2)cc1`, the AC50 under setting [1] is 5.01 µM [falling, full curve].
On to `CCC(C)NC(=O)c1cn(CC)c2cc(N3CCN(C)CC3)c(F)cc2c1=O` (configuration not stated), for which the AC50 under setting [2] was 17.8 µM [rising, partial curve, poor fit].
With `O=C1OC(c2ccccc2)=NC12CC2c1ccc(Cl)cc1` (configuration not stated), the AC50 under setting [1] is 29.1 µM [falling, single point].
Turning to `CCOc1ncccc1C(=O)Nc1ccc(-c2ccc3nnc(C)n3n2)cc1`, the AC50 under setting [1] is 0.794 µM [falling, partial curve, poor fit].
Regarding `CCC(C)NCC(O)(c1ccc(Cl)cc1)c1ccc(Cl)cc1` (configuration not stated), under setting [1], the AC50 is 22.4 µM [falling, single point].
In the case of `CCOc1ccccc1N1CCN(C(=O)Nc2ccc(F)c(Cl)c2)CC1`, under setting [1], the AC50 is 0.0326 µM [rising, full curve, poor fit].
For the molecule `C=CCNc1nc(NCCO)nc(N2CCCC2)n1`, the AC50 is 29.1 µM [rising, single point] under setting [1] and 32.6 µM [falling, partial curve, poor fit] under setting [2].
For the molecule `Cc1cc(NC(=O)OC2CCCCC2)ccc1[N+](=O)[O-]`, the AC50 under setting [1] was 35.5 µM [falling, single point].
Same read-out and setting: the result for `O=C(CCl)N1N=C(c2ccco2)CC1c1cccs1` (configuration not stated) reads 5.8 µM [falling, partial curve, poor fit]; that for `Cn1c(SCC(=O)N2CCCCC2)nc2cccnc21`, 10 µM [falling, partial curve, poor fit]; that for `COC(=O)c1ccc(NC(=O)CSC2=NCCN2)cc1`, 32.6 µM [falling, partial curve, poor fit].
Regarding `COc1cccc(-c2nc(-c3ccc(Br)o3)no2)c1`, the AC50 under setting [1] is 1.58 µM [rising, partial curve, poor fit].
Take `Cc1ccsc1C(=O)Nc1ccc2c(c1)OCCO2`: the AC50 under setting [1] is 9.2 µM [falling, partial curve].
`CCc1c(-c2ccccc2)nc2ccccc2c1C(=O)NC(C)c1ccccc1` (configuration not stated): the AC50 under setting [1] was 7.94 µM [falling, partial curve, poor fit].
